From PMC7819943, “Rice protein-binding microarrays: a tool to detect cis-acting elements near promoter regions in rice”
The other results are listed elsewhere or left out.

Molecular target: T1, OsSMF1 (Oryza sativa, UniProt Q6ZLB0 1-436)
T1 sequence: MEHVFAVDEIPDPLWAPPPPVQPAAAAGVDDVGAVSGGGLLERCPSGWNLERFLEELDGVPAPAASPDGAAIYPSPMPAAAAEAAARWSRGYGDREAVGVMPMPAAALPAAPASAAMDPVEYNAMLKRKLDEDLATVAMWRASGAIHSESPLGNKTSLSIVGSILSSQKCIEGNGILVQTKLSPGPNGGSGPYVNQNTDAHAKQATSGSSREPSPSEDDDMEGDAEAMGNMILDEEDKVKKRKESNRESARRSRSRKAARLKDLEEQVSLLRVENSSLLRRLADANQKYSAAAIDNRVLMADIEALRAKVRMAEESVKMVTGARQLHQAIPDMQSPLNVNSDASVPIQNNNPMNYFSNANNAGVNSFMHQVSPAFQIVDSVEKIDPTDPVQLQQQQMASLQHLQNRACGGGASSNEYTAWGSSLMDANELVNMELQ
Assay: protein-binding microarray (RPBM); PBS, 2% BSA, 51.3 ng/ul salmon testes DNA, 50 uM zinc acetate, 200 nM TF, 25 C, 1 h; high values mean tight binding
Conditions: protein: recombinant; tags: N-terminal polyhistidine and DsRed monomer fusion (pET32a); chain copies: 2; label: CyDye5-dUTP incorporated in the synthesized complementary strand; 3' TTTTT single-stranded linker to array surface; dsDNA, one strand shown
Method in brief: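 Transcription factors were each fused at the N-terminus to a polyhistidine tag plus DsRed and expressed in E. coli BL21-CodonPlus before Ni–NTA purification. Binding to a double-stranded custom Agilent array was carried out with 200 nM protein at 25 °C for 1 h in PBS, 2% BSA, salmon testes DNA and 50 µM zinc acetate. The binding signal is per-feature fluorescence intensity, in arbitrary units, on an Axon 4000B scanner.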

Sequence	binding signal
TTTCATTTCGTGCGCGCGAGTTTTCCTCTTAGCGTAGGCCCGGAGTCACCTAGTGCAG	3280 fluorescence intensity (a.u.)
ATGCGCGCCGCTCCTTTCCTCCCTCCGGCCGGCGCCTGTGCGGAGTCACCTAGTGCAG	3360 fluorescence intensity (a.u.)
AATATGAAAGAAACACATGTGCACATAACACAAAGCTATACGGAGTCACCTAGTGCAG	3560 fluorescence intensity (a.u.)
AATATGTTACACGTTTGTTTTGACACTTTCTCCGGCCTAACGGAGTCACCTAGTGCAG	3250 fluorescence intensity (a.u.)
GTTCGTTTGTCTCTTCCATTCCTGACGTGGCAAGCCTTCGCGGAGTCACCTAGTGCAG	38800 fluorescence intensity (a.u.)
AGCACATATTCATCTCACGCTTCCTTCTCACTTCTTGTCCCGGAGTCACCTAGTGCAG	13900 fluorescence intensity (a.u.)
GATACTAAGTTTCATCCAAGTCAACAGTTCTACTGCAGCTCGGAGTCACCTAGTGCAG	4080 fluorescence intensity (a.u.)
AGGAGGGTGATTCACTCAAAAGCATGACAGGGAGACAAATCGGAGTCACCTAGTGCAG	4710 fluorescence intensity (a.u.)
ATGCGCGCGGCGGCGGCATCGACGCCCTTGAGGCGGGCGCCGGAGTCACCTAGTGCAG	28200 fluorescence intensity (a.u.)
ATATGCTAATTAGCACACGTTTACTGTATCATCACATAGGCGGAGTCACCTAGTGCAG	3760 fluorescence intensity (a.u.)
TATGTGATCAGCTTGCTGACGTAGGACTCGGGTAGTGTCCCGGAGTCACCTAGTGCAG	15700 fluorescence intensity (a.u.)
GGATGGACGTGTGGGGCCTCGCCGTCAGCATTTGCTCCTTCGGAGTCACCTAGTGCAG	4560 fluorescence intensity (a.u.)
CCCCGCGGGCGCGGGAGTTCCACGTACTGAGGCTGACAGTCGGAGTCACCTAGTGCAG	6430 fluorescence intensity (a.u.)
GCAACATAACCCATCCTAGATTGCTATATATTGGGACGAACGGAGTCACCTAGTGCAG	65500 fluorescence intensity (a.u.)
GTTCCAGAAAGCTCCGTTACGAACAGTGCACGTGTCGACTCGGAGTCACCTAGTGCAG	6020 fluorescence intensity (a.u.)
CGGTCTCCCGGTGAGGAGCCCCACGCTCCGTCAAGGTGCTCGGAGTCACCTAGTGCAG	3220 fluorescence intensity (a.u.)
CGGACCGCCGCGCTTGCACCAGCATCCAGATCAGCGCCGCCGGAGTCACCTAGTGCAG	3540 fluorescence intensity (a.u.)
GAATCAACCAGTGGCCTCAACATAATCATCCCTGAGGTTACGGAGTCACCTAGTGCAG	3480 fluorescence intensity (a.u.)
TTGACGTATATATACGAGTCTATGTCATCAGTAATAATGTCGGAGTCACCTAGTGCAG	4940 fluorescence intensity (a.u.)
ACGGCCCAATAGGCCCATTAACGTTAGAAATGCTCGGCTCCGGAGTCACCTAGTGCAG	32800 fluorescence intensity (a.u.)
AAATCACGGATTAAATCTACGTACGTGGCGTGCAAATCCTCGGAGTCACCTAGTGCAG	6870 fluorescence intensity (a.u.)

Sequence	binding signal
CACAAATTTGTCGTGAACAACTTGCTGAATTACCATCCTTCGGAGTCACCTAGTGCAG	16500 fluorescence intensity (a.u.)
TATTTGTAGCCAGCTGTAGCACGGACTCCAAGACACAGTGCGGAGTCACCTAGTGCAG	3230 fluorescence intensity (a.u.)
CTCCTGCCCACCAATCTTGCGGCGGAAAACAAGGCGTGATCGGAGTCACCTAGTGCAG	4000 fluorescence intensity (a.u.)
TTTCAAACATAGCCACGATGACTCGAGTCGTGTCATAACGCGGAGTCACCTAGTGCAG	5870 fluorescence intensity (a.u.)
CTGCGGTGATTTCTAAACCATAGTAACCACAACTAAACAACGGAGTCACCTAGTGCAG	26300 fluorescence intensity (a.u.)
GTCCAGCCTCCTCCTCCGCTGACCTCCTCGCGGTCTTCTCCGGAGTCACCTAGTGCAG	4520 fluorescence intensity (a.u.)
GACATGAAGTCATGCACAAAGCGTCAAGGCCAGCGAGGCACGGAGTCACCTAGTGCAG	3960 fluorescence intensity (a.u.)
CACTGTCGTGTCGCAGTCTCTCTCCCATCCCTCGTCTATACGGAGTCACCTAGTGCAG	24300 fluorescence intensity (a.u.)
TTTTAACACTGCAATCCATCATGCATCACAGTAGGATCATCGGAGTCACCTAGTGCAG	3920 fluorescence intensity (a.u.)
AAGGAGAGTAAAGTTTGACTCCACAGTCCACCACCCGTGACGGAGTCACCTAGTGCAG	3750 fluorescence intensity (a.u.)
GCTAACCATAATGATGACAATTGCCTGACAGAGAAAGACACGGAGTCACCTAGTGCAG	3640 fluorescence intensity (a.u.)
TGAGCACATGGCAGGGGAGGGACCGATGGGTGGGAGGACGCGGAGTCACCTAGTGCAG	3850 fluorescence intensity (a.u.)
GTGGGCCACTACCTTCGCGTTCTTCATCGCCCACGTGGTCCGGAGTCACCTAGTGCAG	6290 fluorescence intensity (a.u.)
GACGACGGCATCGTCGTCGGCGTCAGCGGGGACGACCGCCCGGAGTCACCTAGTGCAG	4650 fluorescence intensity (a.u.)
GTTGCCGCTACACCTTCCACCTCAGCACCCTCGATGGCCTCGGAGTCACCTAGTGCAG	14600 fluorescence intensity (a.u.)
CAACTGATCACTACTTCGGGTGCAAAGTTGTAAACTCAACCGGAGTCACCTAGTGCAG	3310 fluorescence intensity (a.u.)
ACTGACTCTGACACACATCCTATCAAGCCTATACACATATCGGAGTCACCTAGTGCAG	4760 fluorescence intensity (a.u.)
GAACTCTGCAGAATTATCATGTCACCAGTGTCCGCCAATACGGAGTCACCTAGTGCAG	3400 fluorescence intensity (a.u.)
TTCGGCCGCGCCTACCTCTTCGACCACGTGTACGCGTCCTCGGAGTCACCTAGTGCAG	6880 fluorescence intensity (a.u.)
TGCCATTTCTAAAGCTCAGACGCTATTTTGAATCCCACAACGGAGTCACCTAGTGCAG	31200 fluorescence intensity (a.u.)
AGCGTACGTGTGGTTTGCGACGTGGTGTGCGTGGGCGGTGCGGAGTCACCTAGTGCAG	4450 fluorescence intensity (a.u.)

Fetched one by one from the entries so far:
Sequence	binding signal
GGATGGACGTGTGGGGCCTCGCCGTCAGCATTTGCTCCTTCGGAGTCACCTAGTGCAG	4560 fluorescence intensity (a.u.)
GCAACATAACCCATCCTAGATTGCTATATATTGGGACGAACGGAGTCACCTAGTGCAG	65500 fluorescence intensity (a.u.)
AAATCACGGATTAAATCTACGTACGTGGCGTGCAAATCCTCGGAGTCACCTAGTGCAG	6870 fluorescence intensity (a.u.)

Continued.

Sequence	binding signal
CAACAAATTTAAATTTATAGACGTCACCATACTGAAGGCGCGGAGTCACCTAGTGCAG	5460 fluorescence intensity (a.u.)
GCCGCCAGGGCGATCGACACGCGGTTCAGCAGCCGCCGGACGGAGTCACCTAGTGCAG	3170 fluorescence intensity (a.u.)
ATATACTTGTACTCCAGTACTGTAGCTGGTAGCAGTCCAACGGAGTCACCTAGTGCAG	16500 fluorescence intensity (a.u.)
AATCCTACAGCTACGCCTACGACGACGCCACCTCCACCTTCGGAGTCACCTAGTGCAG	4110 fluorescence intensity (a.u.)
CAGTGCCAGGCTGCCAGCCACGCCCTCCCAGCATCTCCTGCGGAGTCACCTAGTGCAG	4400 fluorescence intensity (a.u.)
GTCGCCACCACCACTATATATATGTGCATGCCGGCCGGCGCGGAGTCACCTAGTGCAG	3760 fluorescence intensity (a.u.)
GCTAAACAACACAGAGCTGAGGGTTACGTATTACGCGCGTCGGAGTCACCTAGTGCAG	3630 fluorescence intensity (a.u.)
TTGTCGATTGACTTGTGGGGTCTACGTGGGACTCAACCGCCGGAGTCACCTAGTGCAG	5290 fluorescence intensity (a.u.)
TAAAAGCCGTGGGATCGTTGGAGCGCCACGTCAGCAATTTCGGAGTCACCTAGTGCAG	32300 fluorescence intensity (a.u.)
GAGTCGTGTTTGGTTGGTATGAAGATGTGTGATAAGGGCACGGAGTCACCTAGTGCAG	21800 fluorescence intensity (a.u.)
GACCATTGCCACCGCCTACGGTCCCGCGGGGATTTGGCCACGGAGTCACCTAGTGCAG	3980 fluorescence intensity (a.u.)
ATTCCGAGCTGACGCCGCCGTGCCGTCGTCGACCAACTCTCGGAGTCACCTAGTGCAG	4260 fluorescence intensity (a.u.)
CTAGAACTACACGTCCTGAGATATTTGATGACCTCATGTGCGGAGTCACCTAGTGCAG	4280 fluorescence intensity (a.u.)
CACCCACCCGGAAGCCACTGATTCACGCAGCCACAAGCTGCGGAGTCACCTAGTGCAG	3980 fluorescence intensity (a.u.)
AAGAGGGGAACAGAGAAGATGACGTGTCATACTGACATTTCGGAGTCACCTAGTGCAG	15200 fluorescence intensity (a.u.)
AAACCGTGGCAGTGGTTAGTTCCCTTCAAACTTACGGAAACGGAGTCACCTAGTGCAG	30500 fluorescence intensity (a.u.)
CGCGACCGCGACGTCGTCATCTAACGCGGACGCCCATCTCCGGAGTCACCTAGTGCAG	5270 fluorescence intensity (a.u.)
GCCGCCACATCGATCTACCTACGCATGCGTTTCCTCCTCCCGGAGTCACCTAGTGCAG	4560 fluorescence intensity (a.u.)
GTGATTGTGTCATTTCTAGTACTAATAAACTACTCCTTCCCGGAGTCACCTAGTGCAG	3650 fluorescence intensity (a.u.)
TTTTCCGGATCGAATTGCCACGTAAGCGCCACGTCAATGACGGAGTCACCTAGTGCAG	48300 fluorescence intensity (a.u.)
CCACAAACCAAACCAACCCAAGATATCCTGATGAACCAAACGGAGTCACCTAGTGCAG	35300 fluorescence intensity (a.u.)

Sequence	binding signal
GCCACCACCGCCCATTCTCACGTCGGACGACGAGCTTGTCCGGAGTCACCTAGTGCAG	3420 fluorescence intensity (a.u.)
TCGTCGCCTCGCCTCGCCGGCGCCACCTCCGCATTCCGTTCGGAGTCACCTAGTGCAG	4770 fluorescence intensity (a.u.)
GTTAACTTGTCTTGACAGTTGACACGTAGATTTGCGGGCGCGGAGTCACCTAGTGCAG	9580 fluorescence intensity (a.u.)
CTTTGCGACCTCCCAGTCAATCCTACTAGTTAGTATACTTCGGAGTCACCTAGTGCAG	3440 fluorescence intensity (a.u.)
GTAATTCTGTTGTCATACGGTTTATTGTGTGGTTGCTGAACGGAGTCACCTAGTGCAG	3400 fluorescence intensity (a.u.)
GTTAAATTGCCACGTAAGCACCACGTCATACCACGTCAGACGGAGTCACCTAGTGCAG	51500 fluorescence intensity (a.u.)
TGGCGTGGCGCGGCGCGGCGAGGAAACGTGGACCTCTGCGCGGAGTCACCTAGTGCAG	3780 fluorescence intensity (a.u.)
GCAGGGAGTACACAACGTGCACAGTCAGGTCAACAGCTGGCGGAGTCACCTAGTGCAG	4530 fluorescence intensity (a.u.)
TGCACCGGGTCTACGCCCCAGTAGTAGCAGCCACCTCACCCGGAGTCACCTAGTGCAG	4310 fluorescence intensity (a.u.)
TGGACCACATGGTTCAAACATGTATCAGCAAGCAAAAGGGCGGAGTCACCTAGTGCAG	3760 fluorescence intensity (a.u.)
CCTTCCGTTCGACGCGACACGCGAGTCATTGCTGCCACCACGGAGTCACCTAGTGCAG	3680 fluorescence intensity (a.u.)
GATCTGACAGACCTGGAGCTTATGCGTAACCTCGTCAGAACGGAGTCACCTAGTGCAG	6640 fluorescence intensity (a.u.)
TAACAAGGCAAATGCCCCTTAAACAGTCAAACAACCGAGGCGGAGTCACCTAGTGCAG	4530 fluorescence intensity (a.u.)
GGTCTGACGCCGCCACCACGCACGTCCTCGATTTCGCAGTCGGAGTCACCTAGTGCAG	5230 fluorescence intensity (a.u.)
GGCCTCCTCGCATGGAACGCCGTCGTCTACTCGCTCCCATCGGAGTCACCTAGTGCAG	3210 fluorescence intensity (a.u.)
TTGAATTTTCTGCGATGTGTGGTGACTCAGAATGTTTGCTCGGAGTCACCTAGTGCAG	8810 fluorescence intensity (a.u.)
GTGTACCTACGCATCCGTCTGGACCACCTGAGCCAAAGCCCGGAGTCACCTAGTGCAG	3190 fluorescence intensity (a.u.)
AGAATTCGTTTTATTATTGTTCGTGTCACTGTGGCTCACTCGGAGTCACCTAGTGCAG	3420 fluorescence intensity (a.u.)
ATGCGCGCGGGACAGTGTGTGTGATGGGGTGAGCCAATTGCGGAGTCACCTAGTGCAG	6960 fluorescence intensity (a.u.)
CTTCCATTTCCCAAATCCCAACCACCAAGCAAGAAAACGTCGGAGTCACCTAGTGCAG	9040 fluorescence intensity (a.u.)
GTTACATACTGTGATAGTTTGTTTAATGCTAAATCTAGTACGGAGTCACCTAGTGCAG	43300 fluorescence intensity (a.u.)
